# Test results taken from PubChem BioAssay (EPA / NIEHS).
# The shares of active, inactive and inconclusive entries below differ from those in the screen. Potencies of inconclusive entries are doubtful fits and often do not repeat. The source made the active and inactive calls. Rule for the calls: active = hit-call score of the fitted dose curve at least 0.9, where 1 is the maximum; inconclusive = response in the unintended direction; inactive = score below 0.9.
# Read-out: alkyl and aryl transferase (GSTA2), GSTA2 (gene 2939)
# Experiment: CLD_GSTA2_48hr: CellzDirect (CLD) Gene Expression Assay for alkyl and aryl transferase (GSTA2) at 48 hours (AID 2283708);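 note: active means mRNA induction above DMSO vehicle baseline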
# Method: CLD_48hr is a cell-based, multiplexed-readout assay that uses hepatocyte, a human liver primary cell, with measurements taken at 48 hours after chemical dosing in a 96-well plate.CLD_GSTA2_48hr is one of 16 assay component(s) measured or calculated from the CLD_48hr assay. It is designed to make measurements of mRNA induction, a form of inducible reporter, as detected with chemiluminescence signals by Quantitative Nuclease Protection Assay (qNPA) technology.Data from the assay component CLD_GSTA2_48hr was analyzed at the endpoint, CLD_GSTA2_48hr, in the positive analysis fitting direction relative to DMSO as the negative control and baseline of activity. Using a type of inducible reporter, gain-of-signal activity can be used to understand changes in the reporter gene as they relate to the gene GSTA2. Furthermore, this assay endpoint can be referred to as a primary readout. To generalize the intended target to other relatable targets, this assay endpoint is annotated to the transferase intended target family, where subfamily is alkyl and aryl transferase.
# Human hepatocyte cultures were treated daily for two consecutive days with fresh dosing solutions containing appropriate concentrations of the 320 ToxCast chemicals (chemical identities were blinded to CellzDirect and other ToxCast collaborators), vehicle control (0.2% DMSO), and positive control inducers as summarized in Table 1. […] These replicate data, coupled with internal replicates designed within the blinded ToxCast chemical library, provided additional data to evaluate interindividual differences between hepatocyte preparations and their potential impact on chemical profiles.Cell morphology and integrity were evaluated using phase-contrast microscopy as an indicator of hepatocyte cell health (Tyson & Green, 1987). Cultures for each treatment group (i.e., media, vehicle [0.2% DMSO], positive control inducers [multiple concentrations], and the ToxCast chemicals [multiple concentrations]) were observed and cell morphology was assessed relative to vehicle control cultures at each harvest time point (0, 6, 24, or 48 h). […] Images were evaluated at the conclusion of the study to assess changes in cell integrity and account for the effects of chemical exposure on uncharacteristic changes in concentration-dependent gene expression profiles. The results from these determinations of apparent cytotoxicity were annotated (yes/no) alongside the corresponding qNPA data for reference.At the conclusion of each treatment period, hepatocyte cultures (96-well) were washed with 1 volume of HBSS, lysed by addition of 25 ul ArrayPlate lysis buffer (HTG, Tucson, AZ), and 70 ul/well of Denaturation Oil, denatured by incubation at 95C for 10 min, and frozen at approximately -70C until analysis by nuclease protection assay (qNPA) (Roberts et al., 2007). For qNPA analysis, cell lysates were thawed at 50C for approximately 30 min, qNPA probes were added, and samples were incubated at 95C for 10 min to begin the detection process by denaturing the target RNA, dissociating the duplexes and secondary structure hybridization. At the conclusion of the hybridization period, S1 nuclease reagent was added to each sample to digest all nonprotected nucleotides at 50C for 60-90 min. At the conclusion of the S1 nuclease digestions, all reactions were stopped by transfer of all the samples to fresh plates containing stop solution and incubated at 95C for 15 min to deactivate the enzyme, dissociate the mRNA/ DNA probe heterodimers, and hydrolyze the resulting single stranded mRNA, leaving a stoichiometric amount of single-stranded DNA nuclease protection probe, unmodified in sequence, as the only intact oligonucleotide left in the sample. Neutralization solution was subsequently applied to cooled (room temperature) plates, and samples were transferred to ArrayPlates for overnight incubations at 50Cto allow probes to be captured onto programmed locations on the ArrayPlates. […]
SMILES,AC50,outcome
CCCN(CCC)C(=O)SCC,inconclusive: 20 µM,
COC(=O)c1ccc(I)cc1S(=O)(=O)NC(=O)Nc1nc(C)nc(OC)n1,inconclusive: 0.391 µM,
CCN(Cc1c(F)cccc1Cl)c1c([N+](=O)[O-])cc(C(F)(F)F)cc1[N+](=O)[O-],inconclusive: 1.89 µM,
C=CCOC(Cn1ccnc1)c1ccc(Cl)cc1Cl (stereo not given),active: 36.7 µM,
CCSC(=O)N(CC(C)C)CC(C)C,,inactive
COC(=O)CSc1cc(N=c2sc(=O)n3n2CCCC3)c(F)cc1Cl,inconclusive: 20 µM,
OB(O)O,inconclusive: 20 µM,
COC(=O)c1ccccc1S(=O)(=O)NC(=O)Nc1nc(OC(F)F)cc(OC(F)F)n1,inconclusive: 20 µM,
CCCCC(CC)CN1C(=O)C2C3C=CC(C3)C2C1=O (stereo not given),,inactive
CCN(CC)C(=O)c1cccc(C)c1,inconclusive: 20 µM,
